Results on one substance are retold here after PMC12357876.

Chains of the proteins cited; added tags and fusions are not shown.
UniProt P67809: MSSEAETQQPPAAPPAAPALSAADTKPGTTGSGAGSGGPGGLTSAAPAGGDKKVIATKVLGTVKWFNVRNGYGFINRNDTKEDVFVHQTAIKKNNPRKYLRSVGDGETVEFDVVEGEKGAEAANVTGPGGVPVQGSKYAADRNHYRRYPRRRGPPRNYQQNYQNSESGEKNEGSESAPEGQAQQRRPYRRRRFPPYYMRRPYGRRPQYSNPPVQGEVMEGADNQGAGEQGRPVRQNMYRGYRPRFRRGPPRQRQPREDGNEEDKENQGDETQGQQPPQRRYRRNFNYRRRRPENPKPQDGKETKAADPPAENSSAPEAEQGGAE

The target in this assay is T1, TRIM31 (human (endogenous in HT-29 and DLD-1)) (UniProt Q9BZY9).
T1 sequence: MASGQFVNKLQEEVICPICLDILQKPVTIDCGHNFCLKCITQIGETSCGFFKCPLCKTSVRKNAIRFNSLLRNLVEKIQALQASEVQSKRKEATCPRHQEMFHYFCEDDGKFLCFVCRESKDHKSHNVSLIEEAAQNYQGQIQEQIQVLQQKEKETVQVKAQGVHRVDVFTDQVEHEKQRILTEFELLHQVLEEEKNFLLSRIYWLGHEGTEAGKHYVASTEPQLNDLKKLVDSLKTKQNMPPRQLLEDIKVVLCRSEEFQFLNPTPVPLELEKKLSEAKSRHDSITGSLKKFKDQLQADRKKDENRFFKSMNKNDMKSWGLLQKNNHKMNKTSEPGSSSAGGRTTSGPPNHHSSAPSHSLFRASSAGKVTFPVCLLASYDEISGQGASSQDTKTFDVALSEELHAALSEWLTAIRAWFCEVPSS
Put plainly: affinity purification with mass spectrometry; IP with anti-TRIM31 antibody from HT-29 lysate (RIPA buffer, overnight at 4 °C, protein A + G agarose beads), LC-MS/MS of the immunoprecipitate.

Results are given in words; binding and its absence hold for the method and conditions named. In cells and extracts the contact can be indirect. These calls come from enrichment with a bait or labelling near it, and not all partners need be listed.

Turning to “Y-box binding protein 1 (YBX1) (from UniProt P67809 1-324)”, the binding result is “binds”.
